The values that follow come from publication PMC9746944.

Protein sequences, listed by entry. Tags and fused reporters are not part of them. Residues count along the entry.
UniProt Q9IJX4, residues 1-166: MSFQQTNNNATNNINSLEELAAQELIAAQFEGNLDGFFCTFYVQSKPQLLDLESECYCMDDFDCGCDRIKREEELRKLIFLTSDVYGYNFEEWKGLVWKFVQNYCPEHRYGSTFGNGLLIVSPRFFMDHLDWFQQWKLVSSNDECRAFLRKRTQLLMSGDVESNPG

For this assay, the target named is 3XFLAG tagged-Nup358 (Drosophila Nup358/RanBP2, transcript variant B) (Drosophila). The assay can be described thus: co-IP; FLAG-Nup358 as bait: mouse monoclonal FLAG antibody on Protein A/G magnetic beads (Pierce MS-Compatible Magnetic IP Kit), 1 mg total protein of S2 cell lysate, 4°C; immunoblot for CrPV-1A. A general note: In western blotting, separated proteins are transferred to a membrane and probed.

Results are given in words; binding and its absence hold for the method and conditions named. In cells and extracts the contact can be indirect. Some results given as binding are weak or reduced against the parent protein; the word gives no strength.

“Cricket paralysis virus 1A protein (CrPV-1A), wild type (from UniProt Q9IJX4 1-166)”: the binding result is “binds”.
